Measured values as given in paper PMC6684519.
Results are given in words; binding and its absence hold for the method and conditions named. In cells and extracts the contact can be indirect.

Protein sequences, listed by entry. Tags and fused reporters are not part of them. Lines headed by an entry give the natural chain unless they say otherwise; changes in a name come on top.
UniProt P14780: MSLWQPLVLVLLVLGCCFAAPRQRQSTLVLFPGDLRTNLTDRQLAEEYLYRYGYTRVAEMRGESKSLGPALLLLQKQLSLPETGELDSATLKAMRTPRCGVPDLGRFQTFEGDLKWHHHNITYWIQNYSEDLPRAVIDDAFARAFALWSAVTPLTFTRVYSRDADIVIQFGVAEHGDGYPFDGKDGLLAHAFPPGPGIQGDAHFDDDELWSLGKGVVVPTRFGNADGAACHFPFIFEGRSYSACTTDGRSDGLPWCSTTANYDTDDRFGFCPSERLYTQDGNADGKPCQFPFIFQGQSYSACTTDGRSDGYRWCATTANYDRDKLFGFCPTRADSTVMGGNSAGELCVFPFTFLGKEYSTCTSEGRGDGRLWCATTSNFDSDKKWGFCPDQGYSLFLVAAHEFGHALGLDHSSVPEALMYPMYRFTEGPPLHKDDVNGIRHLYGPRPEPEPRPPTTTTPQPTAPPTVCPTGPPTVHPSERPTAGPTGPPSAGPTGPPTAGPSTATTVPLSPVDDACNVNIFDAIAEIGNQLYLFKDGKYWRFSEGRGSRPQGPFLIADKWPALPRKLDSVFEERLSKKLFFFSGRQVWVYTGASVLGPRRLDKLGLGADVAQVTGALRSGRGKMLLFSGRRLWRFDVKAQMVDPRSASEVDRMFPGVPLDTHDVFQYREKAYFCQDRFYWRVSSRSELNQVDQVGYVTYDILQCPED

Target: Hic-5 (hydrogen peroxide inducible clone-5) (human (endogenous in HCC413)) (UniProt O43294)
Test: co-IP; IP/western analysis of endogenous proteins in HCC413; cells untreated or treated with LZ-8 (5 μg/ml)

Substance: matrix metalloproteinase 9 (MMP9) (from UniProt P14780)
- binding: no binding
